# Laboratory results from the supplement of paper PMC8728848.
# Some of the results follow.
# B1: PX9937I-bfa-538-26-538 (Bacteroides fragilis) (protein)
# chain: DKLDLSPIDYYGSGSYWKTEAQATAYIDGIHKHLRDAAWQHTITFGELRGGRFITGASSDGMGVSNGDIILQNFDETHTGVSKFGDLFGRITNLNLFIARVTDATYLSDEMKNFYLGEVYGLRAFYYFDLYRIYGGVPLRLTADVVEGVIDPNKLYMARSTPKEVMTQIKSDLNKSMEYFGNMNDFDPYKRGKKVYWSKAATECLMGEVYLWTSKVTTGDDVANPADLTIAKTHLESVLNNYNLKMLDDFSQVFNAKNKANDEIIFAIRFLEGEATNSNGTFTYNVGTGSTKNRYQANGEVFGDALDIQNTGNQTYEYNKAVYQNFDDADTRKEATFIASYNKDGKTGELSLYGTHVRKNIGYVNAQGARVYCGDYIFYRLPWVYLTLAEIANMEGDNAAVAKYINLVRKRAYGNAWDETLYAYPETADFTTNELAILHEKDKEFIQEGQRWWDLRRMTLTKGGTPLVFCKEGSLLGDAPILNKSTEAHKLLWPIEKTMLNKDPALEQTPGYK
# Experiments:
# Experiment in all cases: glycan array binding signal (z-score within array); higher = stronger binding
# Conditions in all cases: glycan notation: IUPAC condensed, linker removed
# [1] = molecular target: GlcNAc(b1-2)[GlcNAc(b1-4)]Man(a1-3)[GlcNAc(b1-4)][GlcNAc(b1-2)[GlcNAc(b1-6)]Man(a1-6)]Man(b1-4)GlcNAc(b1-4)GlcNAc
# Procedure, shortened: (§1)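 Glycan array binding is given as a within-array Z-score, which can be read as non-binding when negative. The arrays, 3228 of them, came from the Consortium for Functional Glycomics database and were retained only where the protein sequence was available. Z-scores were averaged across arrays of the same protein sequence at different concentrations or buffers and across linkers.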
# [2] = molecular target: GlcNAc(b1-2)[GlcNAc(b1-4)]Man(a1-3)[GlcNAc(b1-4)][GlcNAc(b1-2)[GlcNAc(b1-6)]Man(a1-6)]Man(b1-4)GlcNAc(b1-4)[Fuc(a1-6)]GlcNAc
# Procedure, shortened: as §1
# [3] = molecular target: GlcNAc(b1-2)[GlcNAc(b1-6)]Man(a1-6)[GlcNAc(b1-2)Man(a1-3)]Man(b1-4)GlcNAc(b1-4)GlcNAc
# Procedure, shortened: as §1
# [4] = molecular target: GlcNAc(b1-2)[GlcNAc(b1-6)]Man(a1-6)[GlcNAc(b1-2)Man(a1-3)]Man(b1-4)GlcNAc(b1-4)[Fuc(a1-6)]GlcNAc
# Procedure, shortened: as §1
# [5] = molecular target: GlcNAc(b1-2)[GlcNAc(b1-6)]Man(a1-6)[GlcNAc(b1-4)][GlcNAc(b1-2)Man(a1-3)]Man(b1-4)GlcNAc(b1-4)GlcNAc
# Procedure, shortened: as §1
# GlcNAc(b1-3)Fuc = molecular target: GlcNAc(b1-3)Fuc
# Procedure, shortened: as §1
# GlcNAc(b1-3)Gal = molecular target: GlcNAc(b1-3)Gal
# Procedure, shortened: as §1
# [6] = molecular target: GlcNAc(b1-3)Gal(b1-3)GalNAc
# Procedure, shortened: as §1
# GlcNAc(b1-3)Gal(b1-4)Glc = molecular target: GlcNAc(b1-3)Gal(b1-4)Glc
# Procedure, shortened: as §1
# [7] = molecular target: GlcNAc(b1-3)Gal(b1-4)GlcNAc
# Procedure, shortened: as §1
# [8] = molecular target: GlcNAc(b1-3)Gal(b1-4)GlcNAc(b1-2)Man(a1-3)[GlcNAc(b1-3)Gal(b1-4)GlcNAc(b1-2)Man(a1-6)]Man(b1-4)GlcNAc(b1-4)GlcNAc
# Procedure, shortened: as §1
# [9] = molecular target: GlcNAc(b1-3)Gal(b1-4)GlcNAc(b1-2)Man(a1-3)[GlcNAc(b1-3)Gal(b1-4)GlcNAc(b1-2)Man(a1-6)]Man(b1-4)GlcNAc(b1-4)[Fuc(a1-6)]GlcNAc
# Procedure, shortened: as §1
# [10] = molecular target: GlcNAc(b1-3)Gal(b1-4)GlcNAc(b1-2)[GlcNAc(b1-3)Gal(b1-4)GlcNAc(b1-6)]Man(a1-6)[GlcNAc(b1-3)Gal(b1-4)GlcNAc(b1-2)Man(a1-3)]Man(b1-4)GlcNAc(b1-4)GlcNAc
# Procedure, shortened: as §1
# [11] = molecular target: GlcNAc(b1-3)Gal(b1-4)GlcNAc(b1-3)Gal(b1-4)GlcNAc
# Procedure, shortened: as §1
# [12] = molecular target: GlcNAc(b1-3)Gal(b1-4)GlcNAc(b1-3)Gal(b1-4)GlcNAc(b1-2)Man(a1-3)[GlcNAc(b1-3)Gal(b1-4)GlcNAc(b1-3)Gal(b1-4)GlcNAc(b1-2)Man(a1-6)]Man(b1-4)GlcNAc(b1-4)GlcNAc
# Procedure, shortened: as §1
# [13] = molecular target: GlcNAc(b1-3)Gal(b1-4)GlcNAc(b1-3)Gal(b1-4)GlcNAc(b1-2)Man(a1-3)[GlcNAc(b1-3)Gal(b1-4)GlcNAc(b1-3)Gal(b1-4)GlcNAc(b1-2)Man(a1-6)]Man(b1-4)GlcNAc(b1-4)[Fuc(a1-6)]GlcNAc
# Procedure, shortened: as §1
# [14] = molecular target: GlcNAc(b1-3)Gal(b1-4)GlcNAc(b1-3)Gal(b1-4)GlcNAc(b1-2)[GlcNAc(b1-3)Gal(b1-4)GlcNAc(b1-3)Gal(b1-4)GlcNAc(b1-6)]Man(a1-6)[GlcNAc(b1-3)Gal(b1-4)GlcNAc(b1-3)Gal(b1-4)GlcNAc(b1-2)Man(a1-3)]Man(b1-4)GlcNAc(b1-4)[Fuc(a1-6)]GlcNAc
# Procedure, shortened: as §1
# [15] = molecular target: GlcNAc(b1-3)Gal(b1-4)GlcNAc(b1-3)Gal(b1-4)GlcNAc(b1-3)Gal(b1-4)GlcNAc(b1-2)Man(a1-3)[GlcNAc(b1-3)Gal(b1-4)GlcNAc(b1-3)Gal(b1-4)GlcNAc(b1-3)Gal(b1-4)GlcNAc(b1-2)Man(a1-6)]Man(b1-4)GlcNAc(b1-4)GlcNAc
# Procedure, shortened: as §1
# [16] = molecular target: GlcNAc(b1-3)Gal(b1-4)GlcNAc(b1-3)Gal(b1-4)GlcNAc(b1-3)Gal(b1-4)GlcNAc(b1-2)Man(a1-3)[GlcNAc(b1-3)Gal(b1-4)GlcNAc(b1-3)Gal(b1-4)GlcNAc(b1-3)Gal(b1-4)GlcNAc(b1-2)Man(a1-6)]Man(b1-4)GlcNAc(b1-4)[Fuc(a1-6)]GlcNAc
# Procedure, shortened: as §1
# [17] = molecular target: GlcNAc(b1-3)Gal(b1-4)GlcNAc(b1-3)Gal(b1-4)GlcNAc(b1-3)Gal(b1-4)GlcNAc(b1-2)[GlcNAc(b1-3)Gal(b1-4)GlcNAc(b1-3)Gal(b1-4)GlcNAc(b1-3)Gal(b1-4)GlcNAc(b1-6)]Man(a1-6)[GlcNAc(b1-3)Gal(b1-4)GlcNAc(b1-3)Gal(b1-4)GlcNAc(b1-3)Gal(b1-4)GlcNAc(b1-2)Man(a1-3)]Man(b1-4)GlcNAc(b1-4)[Fuc(a1-6)]GlcNAc
# Procedure, shortened: as §1
# [18] = molecular target: GlcNAc(b1-3)Gal(b1-4)GlcNAc(b1-3)Gal(b1-4)GlcNAc(b1-3)Gal(b1-4)GlcNAc(b1-3)Gal(b1-4)GlcNAc(b1-2)Man(a1-3)[GlcNAc(b1-3)Gal(b1-4)GlcNAc(b1-3)Gal(b1-4)GlcNAc(b1-3)Gal(b1-4)GlcNAc(b1-3)Gal(b1-4)GlcNAc(b1-2)Man(a1-6)]Man(b1-4)GlcNAc(b1-4)GlcNAc
# Procedure, shortened: as §1
# [19] = molecular target: GlcNAc(b1-3)Gal(b1-4)GlcNAc(b1-3)Gal(b1-4)GlcNAc(b1-3)Gal(b1-4)GlcNAc(b1-3)Gal(b1-4)GlcNAc(b1-2)Man(a1-3)[GlcNAc(b1-3)Gal(b1-4)GlcNAc(b1-3)Gal(b1-4)GlcNAc(b1-3)Gal(b1-4)GlcNAc(b1-3)Gal(b1-4)GlcNAc(b1-2)Man(a1-6)]Man(b1-4)GlcNAc(b1-4)[Fuc(a1-6)]GlcNAc
# Procedure, shortened: as §1
# [20] = molecular target: GlcNAc(b1-3)Gal(b1-4)GlcNAc(b1-3)Gal(b1-4)GlcNAc(b1-3)Gal(b1-4)GlcNAc(b1-3)Gal(b1-4)GlcNAc(b1-2)[GlcNAc(b1-3)Gal(b1-4)GlcNAc(b1-3)Gal(b1-4)GlcNAc(b1-3)Gal(b1-4)GlcNAc(b1-3)Gal(b1-4)GlcNAc(b1-6)]Man(a1-6)[GlcNAc(b1-3)Gal(b1-4)GlcNAc(b1-3)Gal(b1-4)GlcNAc(b1-3)Gal(b1-4)GlcNAc(b1-3)Gal(b1-4)GlcNAc(b1-2)Man(a1-3)]Man(b1-4)GlcNAc(b1-4)[Fuc(a1-6)]GlcNAc
# Procedure, shortened: as §1
binder,measurement,setting,value
B1,glycan array binding signal (z-score),[1],1.78
same,glycan array binding signal (z-score),[2],-0.615
same,glycan array binding signal (z-score),[3],0.847
same,glycan array binding signal (z-score),[4],0.381
same,glycan array binding signal (z-score),[5],-0.243
same,glycan array binding signal (z-score),GlcNAc(b1-3)Fuc,-1.47
same,glycan array binding signal (z-score),GlcNAc(b1-3)Gal,-0.224
same,glycan array binding signal (z-score),[6],-0.051
same,glycan array binding signal (z-score),GlcNAc(b1-3)Gal(b1-4)Glc,-0.462
same,glycan array binding signal (z-score),[7],-1.15
same,glycan array binding signal (z-score),[8],-0.395
same,glycan array binding signal (z-score),[9],1.01
same,glycan array binding signal (z-score),[10],-0.09
same,glycan array binding signal (z-score),[11],-0.969
same,glycan array binding signal (z-score),[12],0.355
same,glycan array binding signal (z-score),[13],0.423
same,glycan array binding signal (z-score),[14],0.7
same,glycan array binding signal (z-score),[15],0.329
same,glycan array binding signal (z-score),[16],0.396
same,glycan array binding signal (z-score),[17],0.512
same,glycan array binding signal (z-score),[18],0.544
same,glycan array binding signal (z-score),[19],0.855
same,glycan array binding signal (z-score),[20],0.041

# Two successive entries already listed, quoted:
binder,measurement,setting,value
B1,glycan array binding signal (z-score),[4],0.381
same,glycan array binding signal (z-score),[5],-0.243
